These results are taken from US20150218629.

The data set has as its target T1, Hel308 Mbu + 5th domain Hel308 Hla (UniProt Q12WZ6).
T1 sequence: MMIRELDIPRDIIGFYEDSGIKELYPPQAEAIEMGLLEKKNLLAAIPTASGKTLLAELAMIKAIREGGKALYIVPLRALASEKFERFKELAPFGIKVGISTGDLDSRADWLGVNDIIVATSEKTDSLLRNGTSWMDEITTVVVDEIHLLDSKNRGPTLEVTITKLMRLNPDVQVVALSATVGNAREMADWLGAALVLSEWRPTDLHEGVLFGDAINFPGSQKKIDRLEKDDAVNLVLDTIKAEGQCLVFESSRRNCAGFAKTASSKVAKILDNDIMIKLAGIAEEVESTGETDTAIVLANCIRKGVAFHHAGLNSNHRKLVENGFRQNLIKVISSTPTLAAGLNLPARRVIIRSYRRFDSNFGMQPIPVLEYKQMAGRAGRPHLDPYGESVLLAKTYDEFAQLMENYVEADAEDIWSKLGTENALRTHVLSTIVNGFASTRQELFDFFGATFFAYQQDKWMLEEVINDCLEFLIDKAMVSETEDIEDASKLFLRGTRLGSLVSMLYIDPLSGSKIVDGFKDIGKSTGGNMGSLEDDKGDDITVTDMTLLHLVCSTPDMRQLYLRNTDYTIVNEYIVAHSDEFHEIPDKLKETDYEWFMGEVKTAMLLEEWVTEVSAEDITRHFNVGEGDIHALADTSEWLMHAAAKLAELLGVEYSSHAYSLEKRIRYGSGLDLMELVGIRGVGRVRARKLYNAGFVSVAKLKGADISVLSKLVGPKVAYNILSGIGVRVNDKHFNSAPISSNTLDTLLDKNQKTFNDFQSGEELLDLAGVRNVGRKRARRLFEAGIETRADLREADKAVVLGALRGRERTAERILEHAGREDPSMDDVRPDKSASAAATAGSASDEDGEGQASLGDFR
Put plainly: binding assay. The following applies: four 2'-O-methyl uracil at 5' end of SEQ 70; MspA nanopore controlled DNA movement; 100 nM enzyme, 400 mM NaCl, 1 mM ATP, 1 mM MgCl2, +140 mV; purified recombinant protein; protein details: 5th domain of Hel308 Hla fused to C-terminus; label: 3' cholesterol TEG on SEQ 71.

For at least one entry, the source does not settle the construct or the ends of the probe. Protein sequences can lack the tags named with them.

Consider “TTTTTTTTTTTTTTTTTTTTTTTTTTTTTTTTTTTTTTTTTTTTTGCCATCAGATTGTGTTTGTTAGTCGCTGGTTGTTTCTGTTGGTGCTGATATTGCTTTTGATGCCGACCCTAAATTTTTTGCCTGTTTGGTTCGCTTTGAGTCTTCTTCGGTTCCGACTACCCTCCCGACTGCCTATGATGTTTATCCTTTGAATGGTCGCCATGATGGTGGTTATTATACCGTCAAGGACTGTGTGACTATTGACGTCCTTCCCCGTACGCCGGGCAATAACGTTTATGTTGGTTTCATGGTTTGGTCTAACTTTACCGCTACTAAATGCCGCGGATTGGTTTCGCTGAATCAGGTTATTAAAGAGATTATTTGTCTCCAGCCACTTAAGTGAGGTGATTTATGTTTGGTGCTATTGCTGGCGGTATTGCTTCTGCTCTTGCTGGTGGCGCCATGTCTAAATTGTTTGGAGGCGGTCTTTTTCCCCCTTTTTCCCCCTTTTTCCCCCTTTTTCCCCCTTTTTCCCCC / AGCGACTAACAAACACAATCTGATGGCTTTTTTTTTTTTTTTTTTTTTTTTTTTTTT”, for which the binding result was “binds”.
